Measurements from article doi:10.1101/2020.11.18.387720.
Results are given in words; binding and its absence hold for the method and conditions named. Binding seen in cells or lysates may run through a third protein. Some binding calls cover weakened binding; strength is not graded here. Where a sequence is shown, tags or fusion partners need not be part of it.

Experiments:
[1] = biological target: T1, Fz2-FLAG (C-terminally FLAG-tagged Frizzled2) (Drosophila) (UniProt Q9VVX3); assay: proximity ligation
T1 sequence: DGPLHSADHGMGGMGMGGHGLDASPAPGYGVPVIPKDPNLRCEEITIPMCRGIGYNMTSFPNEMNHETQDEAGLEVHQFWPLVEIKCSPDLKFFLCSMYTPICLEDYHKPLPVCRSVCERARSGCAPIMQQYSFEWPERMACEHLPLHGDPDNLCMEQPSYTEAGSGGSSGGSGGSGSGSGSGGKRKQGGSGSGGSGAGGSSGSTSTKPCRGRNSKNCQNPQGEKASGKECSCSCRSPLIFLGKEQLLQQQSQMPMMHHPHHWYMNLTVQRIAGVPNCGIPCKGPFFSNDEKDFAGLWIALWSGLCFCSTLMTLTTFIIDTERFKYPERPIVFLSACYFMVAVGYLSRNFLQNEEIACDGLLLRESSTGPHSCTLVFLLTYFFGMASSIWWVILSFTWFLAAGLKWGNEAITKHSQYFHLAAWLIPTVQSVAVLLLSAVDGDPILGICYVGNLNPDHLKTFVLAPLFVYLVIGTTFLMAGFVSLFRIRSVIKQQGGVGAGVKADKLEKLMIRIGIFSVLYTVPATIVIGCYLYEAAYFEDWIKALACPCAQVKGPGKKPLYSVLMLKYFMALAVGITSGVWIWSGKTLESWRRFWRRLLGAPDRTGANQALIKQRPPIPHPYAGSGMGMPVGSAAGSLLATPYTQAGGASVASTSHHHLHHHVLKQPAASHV

[2] = biological target: T2, Fz2 (endogenous, detected with anti-Fz2-N antibody) (Drosophila (endogenous in larval muscle)) (UniProt Q9VVX3); assay: proximity ligation
T2 sequence: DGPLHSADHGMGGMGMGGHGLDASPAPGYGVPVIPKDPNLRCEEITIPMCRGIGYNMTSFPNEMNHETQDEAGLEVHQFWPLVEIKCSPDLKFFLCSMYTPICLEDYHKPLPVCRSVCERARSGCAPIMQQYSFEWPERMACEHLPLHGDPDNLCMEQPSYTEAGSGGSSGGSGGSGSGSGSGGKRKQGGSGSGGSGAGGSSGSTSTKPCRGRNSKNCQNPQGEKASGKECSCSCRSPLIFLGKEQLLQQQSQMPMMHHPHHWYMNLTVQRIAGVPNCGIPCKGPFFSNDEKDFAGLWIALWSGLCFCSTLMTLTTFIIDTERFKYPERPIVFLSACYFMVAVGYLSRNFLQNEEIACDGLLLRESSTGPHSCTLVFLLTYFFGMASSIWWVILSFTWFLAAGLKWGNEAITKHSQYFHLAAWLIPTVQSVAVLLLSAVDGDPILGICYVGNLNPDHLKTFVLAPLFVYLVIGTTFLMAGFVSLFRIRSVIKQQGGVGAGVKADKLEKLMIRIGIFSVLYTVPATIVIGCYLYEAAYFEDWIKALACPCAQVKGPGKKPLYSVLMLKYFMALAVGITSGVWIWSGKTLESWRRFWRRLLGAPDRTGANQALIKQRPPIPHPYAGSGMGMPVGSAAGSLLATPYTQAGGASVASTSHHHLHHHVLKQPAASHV

B1: Psn-Myc (epitope-tagged Presenilin) (protein, UniProt O02194 1-541)
chain: MAAVNLQASCSSGLASEDDANVGSQIGAAERLERPPRRQQQRNNYGSSNQDQPDAAILAVPNVVMREPCGSRPSRLTGGGGGSGGPPTNEMEEEQGLKYGAQHVIKLFVPVSLCMLVVVATINSISFYNSTDVYLLYTPFHEQSPEPSVKFWSALANSLILMSVVVVMTFLLIVLYKKRCYRIIHGWLILSSFMLLFIFTYLYLEELLRAYNIPMDYPTALLIMWNFGVVGMMSIHWQGPLRLQQGYLIFVAALMALVFIKYLPEWTAWAVLAAISIWDLIAVLSPRGPLRILVETAQERNEQIFPALIYSSTVVYALVNTVTPQQSQATASSSPSSSNSTTTTRATQNSLASPEAAAASGQRTGNSHPRQNQRDDGSVLATEGMPLVTFKSNLRGNAEAAGFTQEWSANLSERVARRQIEVQSTQSGNAQRSNEYRTVTAPDQNHPDGQEERGIKLGLGDFIFYSVLVGKASSYGDWTTTIACFVAILIGLCLTLLLLAIWRKALPALPISITFGLIFCFATSAVVKPFMEDLSAKQVFI
- binding [1]: binds

B2: Nct-Myc (epitope-tagged Nicastrin) (protein, UniProt Q9VC27 23-695)
chain: QGERTRDKMYEPIGGASCFRRLNGTHQTGCSSTYSGSVGVLHLINVEADLEFLLSSPPSPPYAPMIPPHLFTRNNLMRLKEAGPKNISVVLLINRTNQMKQFSHELNCPNQYSGLNSTSETCDASNPAKNWNPWGTGLLHEDFPFPIYYIADLDQVTKLEKCFQDFNNHNYETHALRSLCAVEVKSFMSAAVNTEVCMRRTNFINNLGGSKYCDPLEGRNVYATLYPRKPAIENNLETVHTNEKFILVTCRLDTTTMFDGVGLGAMDSLMGFAVFTHVAYLLKQLLPPQSKDLHNVLFVTFNGESYDYIGSQRFVYDMEKLQFPTESTGTPPIAFDNIDFMLDIGTLDDISNIKLHALNGTTLAQQILERLNNYAKSPRYGFNLNIQSEMSAHLPPTSAQSFLRRDPNFNALILNARPTNKYYHSIYDDADNVDFTYANTSKDFTQLTEVNDFKSLNPDSLQMKVRNVSSIVAMALYQTITGKEYTGTKVANPLMADEFLYCFLQSADCPLFKAASYPGSQLTNLPPMRYISVLGGSQESSGYTYRLLGYLLSQLQPDIHRDNCTDLPLHYFAGFNNIGECRLTTQNYSHALSPAFLIDGYDWSSGMYSTWTESTWSQFSARIFLRPSNVHQVTTLSVGIVVLIISFCLVYIISSRSEVLFEDLPASNAALFG
- binding [2]: binds
